# Results deposited as PubChem BioAssay AID1259424 (University of Nebraska Medical Center, 2018).
# Purpose: 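Rank knockdowns across the genome by resemblance to the KSR1 depletion profile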 (primary screen)
# System: human HCT116 colon cancer cells
# Knock-down reagent: siRNA pool against human genes, 50 nM
# Measured: 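Six signature mRNAs by branched-DNA multiplex assay, scaled to two housekeeping genes and non-targeting median, log2; matched to mean KSR1 knockdown profile by Pearson correlation and euclidean distance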
# Scale: mean correlation with KSR1 profile and KSR1 correlation: higher = expression change more like KSR1 knockdown; mean distance from KSR1 profile: higher = expression change less like KSR1 knockdown
# Shown is an unselected part of about 14,000 reagents tested. 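Higher correlation or smaller distance means closer resemblance to KSR1 loss; control wells, including KSR1 knockdowns, recur on many plates.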 Not given: the time to read-out.
gene symbol,mean correlation with KSR1 profile,mean distance from KSR1 profile,"KSR1 correlation, replicate 1","KSR1 correlation, replicate 2","KSR1 correlation, replicate 3"
ACP4,0.21,1.59,-0.0588,0.411,0.411
TBL1X,0.71,2.33,0.688,0.692,0.636
BCLAF1,0.0403,1.72,0.439,0.516,-0.344
TBCK,0.709,2.59,0.565,0.841,0.498
CDK5RAP1,0.638,1.86,0.844,0.542,0.149
TUG1,-0.695,6.08,-0.559,-0.639,-0.42
ATP2C2,0.37,2.33,0.173,0.266,0.482
CHST4,-0.218,2.59,-0.162,-0.181,-0.261
DNASE2B,-0.262,2.11,-0.308,-0.282,-0.347
LRBA,0.634,1.39,0.669,0.455,0.673
PLEKHG6,-0.257,2.45,-0.122,-0.359,-0.382
HS1BP3,-0.309,1.52,-0.34,-0.422,-0.0915
PRDX6,0.458,1.02,0.462,0.683,0.221
GIMAP4,0.313,1.91,0.466,0.0372,0.213
APEH,0.231,1.08,0.0161,0.276,0.524
NME5,0.561,1.57,0.676,0.506,0.379
CDH24,-0.0781,1.89,0.196,-0.408,-0.32
MYBBP1A,0.287,3.96,0.126,0.351,0.333
ULBP2,0.508,1.61,0.126,0.526,0.301
NDUFB7,-0.345,5.73,-0.156,-0.165,-0.603
FYTTD1,0.896,1.06,0.892,0.762,0.898
EMC7,0.315,1.6,0.479,-0.511,0.219
MT1F,-0.326,4.78,-0.24,-0.23,-0.348
IDS,0.493,3.81,0.663,0.000793,0.522
FLT3LG,0.0125,2.35,-0.243,0.152,0.101
SNRK,0.0675,1.65,0.648,-0.285,-0.681
CLTRN,-0.0879,1.3,-0.637,0.284,0.908
CNTLN,-0.467,2.62,-0.531,-0.499,-0.286
LRRC47,-0.603,2.67,-0.578,-0.389,-0.514
NUP98,0.297,2.13,0.44,0.32,-0.271
VCPIP1,-0.0648,3.03,-0.149,-0.157,-0.0908
PKD2L1,-0.278,2.85,-0.176,-0.365,-0.445
TMEM41B,-0.266,1.87,-0.364,-0.282,-0.183
ACTR1A,-0.141,1.6,-0.545,-0.139,0.555
ZIC3,0.565,1.44,0.538,0.571,0.567
BLOC1S6,-0.44,3.59,-0.227,-0.642,-0.464
SCN2A,-0.242,2.31,-0.222,-0.455,-0.131
LIMS1,-0.759,2.44,-0.767,-0.933,-0.86
MAPRE3,-0.758,2.06,-0.748,-0.852,-0.585
PSTPIP2,-0.137,2.11,-0.215,-0.292,-0.256
GUCY2F,0.293,1.91,0.238,0.0458,0.18
RPS27L,0.288,3.11,0.479,0.177,0.124
GPA33,-0.117,2.7,0.0172,-0.0482,-0.198
YWHAZ,0.518,0.994,0.696,0.666,-0.0237
PPY,0.25,2.07,0.42,0.426,-0.00358
DARS1,0.3,2.04,0.371,0.328,0.073
TOMM40,-0.737,1.89,-0.472,-0.766,-0.174
NDUFA8,-0.134,2.42,0.0543,-0.000132,-0.263
CLEC11A,0.858,1.1,0.8,0.78,0.777
SLC23A1,-0.575,2.38,-0.33,-0.663,-0.542
